Results: PMC6381116
No constants are given. Whether binding was seen depends on the method and setting. In cells and extracts the contact can be indirect. Here binding means that the protein was enriched with, or labelled near, the bait; the list need not be complete.

Target: T1, 3HA:AGO2 expressed from pAGO2:3HA:AGO2 in the ago2-1 mutant (Arabidopsis thaliana) (UniProt Q9SHF3)
T1 sequence: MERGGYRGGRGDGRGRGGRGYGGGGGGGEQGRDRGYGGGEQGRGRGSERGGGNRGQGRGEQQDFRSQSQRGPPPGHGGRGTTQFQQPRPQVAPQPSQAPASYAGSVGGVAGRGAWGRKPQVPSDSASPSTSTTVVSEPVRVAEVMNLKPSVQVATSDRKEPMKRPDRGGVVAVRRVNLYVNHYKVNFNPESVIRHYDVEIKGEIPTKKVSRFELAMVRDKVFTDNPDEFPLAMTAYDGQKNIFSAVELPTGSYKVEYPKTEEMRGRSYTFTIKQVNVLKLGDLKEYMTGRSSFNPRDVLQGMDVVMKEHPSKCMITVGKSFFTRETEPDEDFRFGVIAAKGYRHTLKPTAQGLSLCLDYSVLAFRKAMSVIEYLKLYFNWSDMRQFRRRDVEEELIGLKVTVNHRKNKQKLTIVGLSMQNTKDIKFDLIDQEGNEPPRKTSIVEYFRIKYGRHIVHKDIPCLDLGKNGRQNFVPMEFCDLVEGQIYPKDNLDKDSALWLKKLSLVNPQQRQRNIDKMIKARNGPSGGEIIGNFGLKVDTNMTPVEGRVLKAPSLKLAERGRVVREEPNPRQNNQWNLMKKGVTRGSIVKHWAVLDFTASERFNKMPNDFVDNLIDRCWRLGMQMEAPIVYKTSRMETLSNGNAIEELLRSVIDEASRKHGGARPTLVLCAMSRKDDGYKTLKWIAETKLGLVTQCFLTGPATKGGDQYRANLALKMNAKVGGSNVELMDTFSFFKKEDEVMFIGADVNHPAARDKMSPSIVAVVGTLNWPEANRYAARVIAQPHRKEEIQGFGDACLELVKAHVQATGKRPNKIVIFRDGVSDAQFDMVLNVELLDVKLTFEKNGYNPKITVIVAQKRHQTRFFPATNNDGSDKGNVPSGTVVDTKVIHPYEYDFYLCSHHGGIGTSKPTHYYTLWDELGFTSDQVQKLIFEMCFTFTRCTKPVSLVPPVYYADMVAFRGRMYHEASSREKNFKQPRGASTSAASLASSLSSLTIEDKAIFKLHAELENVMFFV
Test: affinity purification with mass spectrometry; anti-HA immunoprecipitation from pAGO2:3HA:AGO2/ago2-1 plants treated with Pst (avrRpt2); pAGO7:gus plants as negative control; SDS-PAGE, in-gel trypsin digest, LC-MS/MS, label-free quantification

Row | Substance | binding
1 | HSP70, endogenous | binds
2 | HSP90, endogenous | binds
3 | PRMT5 (protein arginine methyltransferase5), endogenous (enzyme) | binds
